PubChem BioAssay AID192 (DTP/NCI, 2004)
The list is a part of this screen's results and no random one: it gathers tests that were run many times, whatever their T/C, doses with no T/C, and many T/C values between a quarter and a half above the control. Other doses and runs of a compound stand elsewhere. T/C is the treated group as % of the vehicle group. Some doses have a count of surviving animals in place of a T/C: the source files T/C as zero there, which appears to mark a toxic dose or a test without result, not a measured value. Some doses without a T/C left all or most animals alive at the check, yet need not have been tolerated: the source hardly ever lists a survival T/C far under the control, and the zero likely stands for such cases as well. Survivors were counted at the toxicity check, usually on the fifth day, unless a day is given; later deaths do not show. Schedule codes are those of the source, read here as Q, the interval in days (D) or hours (H), X, the number of doses. Brackets with × give the number of equal values in this list. Some doses were run more than once; the results are listed from low to high. For survival time, this PubChem deposit counts one and a half times the control or more as active, and values a quarter to a half above the control carry no call in these data; other NCI protocols may use other cut-offs.

Test system: BDF1 mice, B16 melanoma ip, median survival T/C
Test: NCI In Vivo Anticancer Drug Screen. Data for tumor model B16 Melanoma (intraperitoneal) in B6D2F1 (BDF1) mice
Conditions: T/C endpoint: median survival time, higher T/C = longer survival
Method: The antitumor activity of compounds was measured in mice bearing transplantable tumors. Survival or tumor size were measured and the results are expressed as the measurement made in the treated group (T) divided by the measurement made in the vehicle treated control group (C). The tumor model used in this assay is B16 Melanoma (intraperitoneal) in B6D2F1 (BDF1) mice

[1] = dose: 200.0 mg/kg/injection, schedule: Q01DX009 (ip), vehicle: saline with Tween-80
[2] = dose: 200.0 mg/kg/injection, schedule: Q01DX009 (ip), vehicle: Klucel (hydroxypropylcellulose) (HPC)

SMILES: Cc1nc(N)nc(N)c1-c1ccc(Cl)c(Cl)c1
- T/C (dose: 1.5 mg/kg/injection, schedule: Q01DX009 (ip), vehicle: saline with Tween-80): 125 % of control
- T/C (dose: 2.5 mg/kg/injection, schedule: Q01DX009 (ip), vehicle: saline): 132 % of control
- T/C (dose: 3.0 mg/kg/injection, schedule: Q01DX009 (ip), vehicle: saline with Tween-80): 132 % of control
- T/C (dose: 4.0 mg/kg/injection, schedule: Q02DX009 (ip), vehicle: saline with Tween-80): 129 % of control
- T/C (dose: 4.5 mg/kg/injection, schedule: Q01DX009 (ip), vehicle: saline with Tween-80): 130 % of control
- survivor count (dose: 5.0 mg/kg/injection, schedule: Q01DX009 (ip), vehicle: saline with Tween-80): 10 of 10
- survivor count (dose: 5.0 mg/kg/injection, schedule: Q01DX009 (ip), vehicle: saline): 10 of 10
- survivor count (dose: 6.0 mg/kg/injection, schedule: Q04DX003 (ip), vehicle: saline with Tween-80): 10 of 10
- survivor count (dose: 8.0 mg/kg/injection, schedule: Q02DX009 (ip), vehicle: saline with Tween-80): 10 of 10
- survivor count (dose: 10.0 mg/kg/injection, schedule: Q01DX009 (ip), vehicle: saline): 9 of 10
- survivor count (dose: 16.0 mg/kg/injection, schedule: Q02DX009 (ip), vehicle: Klucel (hydroxypropylcellulose) (HPC)): 10 of 10
- survivor count (dose: 16.0 mg/kg/injection, schedule: Q02DX009 (ip), vehicle: saline with Tween-80): 10 of 10
- survivor count (dose: 20.0 mg/kg/injection, schedule: Q01DX009 (ip), vehicle: saline): 10 of 10
- survivor count (dose: 100.0 mg/kg/injection, schedule: Q01DX009 (ip), vehicle: saline with Tween-80): 10 of 10
- survivor count [1]: 10 of 10

SMILES: N/C(CCSc1ccccc1N=Cc1ccccc1O)=N/O
- survivor count (dose: 3.13 mg/kg/injection, schedule: Q01DX009 (ip), vehicle: olive oil, sesame oil, peanut oil): 9 of 10 and 10 of 10
- survivor count (dose: 6.25 mg/kg/injection, schedule: Q01DX009 (ip), vehicle: olive oil, sesame oil, peanut oil): 10 of 10 (2×)
- survivor count (dose: 12.5 mg/kg/injection, schedule: Q01DX009 (ip), vehicle: olive oil, sesame oil, peanut oil): 9 of 10 (2×)
- survivor count (dose: 25.0 mg/kg/injection, schedule: Q01DX009 (ip), vehicle: olive oil, sesame oil, peanut oil): 10 of 10 (2×)
- survivor count (dose: 50.0 mg/kg/injection, schedule: Q01DX009 (ip), vehicle: olive oil, sesame oil, peanut oil): 8 of 10 and 10 of 10
- survivor count (dose: 100.0 mg/kg/injection, schedule: Q01DX009 (ip), vehicle: olive oil, sesame oil, peanut oil): 0 of 10 and 4 of 10

SMILES: CCCNCCNc1ccc(NCCNCCC)c2c1C(=O)c1ccccc1C2=O
- survivor count (dose: 64.0 mg/kg/injection, schedule: Q01DX009 (ip), vehicle: acid diluted with saline): 0 of 10
- survivor count (dose: 128.0 mg/kg/injection, schedule: Q01DX009 (ip), vehicle: acid diluted with saline): 0 of 10
- survivor count (dose: 256.0 mg/kg/injection, schedule: Q01DX009 (ip), vehicle: acid diluted with saline): 0 of 10

SMILES: O=C1C(NC(=O)C2CCCCC2)=C(N2CC2)C(=O)C(NC(=O)C2CCCCC2)=C1N1CC1
- survivor count (dose: 100.0 mg/kg/injection, schedule: Q01DX009 (ip), vehicle: Klucel (hydroxypropylcellulose) (HPC)): 10 of 10
- survivor count [2]: 6 of 10

SMILES: C[C@@H]1CC2=CC(=O)C=C[C@]2(C)[C@H]2CC[C@@]3(C)[C@@H](CC[C@]3(C)O)[C@H]12
- survivor count (dose: 50.0 mg/kg/injection, schedule: Q01DX009 (ip), vehicle: Klucel (hydroxypropylcellulose) (HPC)): 10 of 10
- survivor count [2]: 10 of 10
- survivor count (dose: 400.0 mg/kg/injection, schedule: Q01DX009 (ip), vehicle: Klucel (hydroxypropylcellulose) (HPC)): 10 of 10

SMILES: O=C1CC2(CCCCC2)CO1
- survivor count (dose: 3.12 mg/kg/injection, schedule: Q01DX009 (ip), vehicle: saline): 10 of 10
- survivor count (dose: 6.25 mg/kg/injection, schedule: Q01DX009 (ip), vehicle: saline): 9 of 10
- survivor count (dose: 12.5 mg/kg/injection, schedule: Q01DX009 (ip), vehicle: saline): 0 of 10
- survivor count (dose: 25.0 mg/kg/injection, schedule: Q01DX009 (ip), vehicle: saline): 0 of 10
- survivor count (dose: 50.0 mg/kg/injection, schedule: Q01DX009 (ip), vehicle: saline): 0 of 10

SMILES: O=C(OCc1ccccc1)C(=O)OCc1ccccc1
- T/C [1]: 134 % of control
- survivor count (dose: 400.0 mg/kg/injection, schedule: Q01DX009 (ip), vehicle: saline with Tween-80): 5 of 10
- survivor count (dose: 400.0 mg/kg/injection, schedule: Q04DX003 (ip), vehicle: saline with Tween-80): 6 of 10
